Earlier results on 1 molecule are cited in patent publication US20090175929A1 (priority 2006, published 2009).

SMILES strings stand for the structures. Counter-ions that a name gives are not always drawn.

For this data set the following is noted: in vivo, po.

As for `COc1cc2c(cc1OC)C(=O)C(CC1CCN(Cc3ccccc3)CC1)C2` (stereo not shown) [donepezil hydrochloride], the “Amount of donepezil metabolites such as 6-O-desmethyldonepezil generated, based on the parent drug” value was 25 to 35%.
